From publication PMC12370252
Results are given in words; binding and its absence hold for the method and conditions named. In cells and extracts the contact can be indirect. These calls come from enrichment with a bait or labelling near it, and not all partners need be listed. For part of these data: A no says only that the protein was not detected with the bait.

Chains of the proteins cited; added tags and fusions are not shown. Lines headed by an entry give the natural chain unless they say otherwise; changes in a name come on top. A line that says so, or that is headed by a name, gives the form on record, which may keep a tag or linker. Residues count along the entry.
UniProt Q9UBI1: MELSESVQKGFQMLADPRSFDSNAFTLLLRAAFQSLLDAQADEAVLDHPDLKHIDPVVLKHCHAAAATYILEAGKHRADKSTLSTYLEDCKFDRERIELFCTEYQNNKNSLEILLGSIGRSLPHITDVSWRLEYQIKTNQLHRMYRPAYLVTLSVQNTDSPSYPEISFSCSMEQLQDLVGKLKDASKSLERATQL
N-terminal domain (NTD) of human COMMD3 fused to mCherry and 3xFLAG, as used in the proteomic experiment: residues 1-124 of Q9UBI1
C-terminal domain (CTD) of human COMMD3 with N-terminal mCherry and C-terminal 3xFLAG: residues 125-195 of Q9UBI1
UniProt P84077: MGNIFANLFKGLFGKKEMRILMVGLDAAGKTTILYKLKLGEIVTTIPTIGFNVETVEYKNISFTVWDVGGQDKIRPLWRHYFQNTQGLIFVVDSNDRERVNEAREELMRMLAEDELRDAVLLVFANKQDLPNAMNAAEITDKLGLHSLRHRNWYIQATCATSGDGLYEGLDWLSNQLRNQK

Experiments:
Test in all cases: affinity purification with mass spectrometry; FL COMMD3, NTD and CTD (tagged with mCherry and 3xFLAG) individually expressed and isolated by co-IP from cell extracts (IP buffer: 25 mM HEPES pH 7.4, 138 mM NaCl, 10 mM Na3PO4, 2.7 mM KCl, 0.5% CHAPS, 1 mM DTT; protein A/G beads); associated proteins identified by mass spectrometry, compared with vector control
[1] = target: full-length (FL) human COMMD3 fused to mCherry and 3xFLAG (human) (UniProt Q9UBI1)
[2] = target: N-terminal domain (NTD) of human COMMD3 fused to mCherry and 3xFLAG, as used in the proteomic experiment (human) (UniProt Q9UBI1)
[3] = target: C-terminal domain (CTD) of human COMMD3 with N-terminal mCherry and C-terminal 3xFLAG (human) (UniProt Q9UBI1)

Substance: ADP-ribosylation factor 1 (ARF1), found by mass spectrometry in COMMD3 immunoprecipitates (from UniProt P84077 1-181)
- binding [1]: binds
- binding [2]: binds
- binding [3]: no binding
